Measured data: PubChem BioAssay AID686938 (Drosophila RNAi Screening Center, 2013)

Assay: 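Fly genes required for calcium entry once internal stores are emptied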 (primary screen)
System: Drosophila S2R+ cells
Reagent: long dsRNA against Drosophila genes, about 0.25 µg dsRNA per well, roughly 10,000 cells
Duration: 5 days of knock-down before the calcium assay
Conditions: thapsigargin (SERCA pump blocker) to empty calcium stores; entry signal taken 4 min after adding it
Read-out: 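Per-well fluo-4 fluorescence in two replicates, unnormalised, measured in resting cells and 4 min after store depletion by the SERCA blocker thapsigargin; ratio of the two present in few wells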
Direction: calcium entry signal: higher = stronger calcium signal after store depletion; entry to resting ratio: higher = more calcium entry relative to resting level; resting calcium signal: higher = higher resting calcium signal
Active means: 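Called when the plate z-score of the entry-to-rest ratio, mean of duplicates, falls below −3; wells with low overall dye signal (Fmax z below −2) or more than five off-targets excluded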
Calls: active = strongly reduced calcium entry; inactive = no strong reduction
In all, the deposit lists about 23,000 reagents; this is an unselected part of those with a known target gene and a result. Over the whole deposit, 75 (0.33%) are marked active. 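Raw plate signals without normalisation; calls rest on plate z-scores that were not deposited; ratio present for only 364 wells.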 Reagents against one gene are numbered here. Names joined by + are all predicted targets of the reagent. The record does not give: the dose of the treatment.

gene knocked down	reagent	calcium entry signal, replicate 1 (fluorescence units)	calcium entry signal, replicate 2 (fluorescence units)	entry to resting ratio	resting calcium signal, replicate 1 (fluorescence units)	resting calcium signal, replicate 2 (fluorescence units)	Call
Patsas	1	5.22e7			2.56e7		inactive
Ilp6 (Insulin-like peptide 6)	1	4.48e7	4.10e7	2.1	2.14e7	1.78e7	inactive
mahe (maheshvara)	1	4.75e7	4.04e7		2.09e7	1.96e7	inactive
CG12911	1	3.11e7	3.08e7		1.57e7	1.41e7	inactive
Oatp30B (Organic anion transporting polypeptide 30B)	1	5.44e7			2.45e7		inactive
mRpS22 (mitochondrial ribosomal protein S22)	1	5.27e7	6.33e7		2.09e7	2.61e7	inactive
CG42538	1	3.80e7	3.91e7		1.76e7	1.87e7	inactive
CG5623	1	2.43e7	3.62e7		1.20e7	4.47e7	inactive
Pak3	1	3.37e7	3.31e7		1.68e7	1.59e7	inactive
Obp28a (Odorant-binding protein 28a)	1	3.67e7	3.84e7		1.74e7	1.72e7	inactive
DIP-epsilon (Dpr-interacting protein epsilon)	1	4.27e7	2.97e7		2.03e7	1.38e7	inactive
DIP-epsilon (Dpr-interacting protein epsilon)	2	2.73e7	3.45e7		1.46e7	1.80e7	inactive
Dnali1 (Dynein axonemal light intermediate chain 1)	1	3.05e7	3.59e7		1.41e7	1.59e7	inactive
CG31867	1	4.19e7	6.16e7		2.08e7	2.59e7	inactive
Nost (Nostrin)	1	2.15e7	3.03e7		1.10e7	1.46e7	inactive
Nost (Nostrin)	2	2.48e7	2.90e7		1.16e7	1.30e7	inactive
CG33771	1	6.78e7	2.25e7		3.37e7	1.21e7	inactive
Mrp5 (Multidrug resistance protein 5)	1	3.83e7	4.22e7		4.57e7	1.98e7	inactive
Mrp5 (Multidrug resistance protein 5)	2	4.47e7	4.49e7		4.17e7	1.95e7	inactive
drn + CG43675	1	2.14e7	1.80e7		1.17e7	1.03e7	inactive
fbl (fumble)	1	2.24e7	3.79e7		1.14e7	1.71e7	inactive
dpr6 (defective proboscis extension response 6)	1	1.90e7	1.73e7		1.25e7	1.21e7	active
dpr6 (defective proboscis extension response 6)	2	2.62e7	3.57e7		1.33e7	1.63e7	inactive
dpr6 (defective proboscis extension response 6)	3	3.35e7	2.04e7		1.51e7	1.11e7	inactive
CG3280 (retired record)	1	3.00e7	3.82e7		1.46e7	1.64e7	inactive
CG13511	1	3.36e7	3.30e7		1.68e7	1.59e7	inactive
CG9483	1	4.28e7			1.94e7		inactive
Arc2 (Activity-regulated cytoskeleton associated protein 2)	1	2.25e7	3.52e7		1.13e7	1.48e7	inactive
CG12520	1	2.58e7	3.77e7		1.32e7	1.56e7	inactive
Atg8a (Autophagy-related 8a)	1	3.49e7	4.47e7		1.75e7	2.17e7	inactive
GramD1B (GRAM domain containing 1B)	1	2.57e7	2.94e7		1.34e7	1.41e7	inactive
GramD1B (GRAM domain containing 1B)	2	4.68e7			2.44e7		inactive
msd1 (mitotic spindle density 1)	1	3.07e7	3.63e7		1.64e7	1.62e7	inactive
CG14177 (retired record)	1	3.08e7	2.74e7		1.54e7	1.44e7	inactive
Ero1L (Endoplasmic reticulum oxidoreductin-1-like)	1	4.70e7	3.93e7		3.29e7	1.77e7	inactive
Ance-5	1	3.10e7			1.49e7		inactive
CG34171	1	3.40e7	3.02e7		1.83e7	1.59e7	inactive
CG43367 + asRNA:CR32252	1	3.39e7	2.75e7		1.69e7	1.32e7	inactive
Edg91 (Ecdysone-dependent gene 91)	1	2.90e7	5.45e7		1.62e7	6.59e7	inactive
CG13193	1	4.03e7	3.80e7		2.07e7	1.80e7	inactive
Ggt-1 (gamma-glutamyl transpeptidase)	1	3.85e7	3.57e7		1.74e7	1.71e7	inactive
Ets21C (Ets at 21C)	1	2.60e7	2.60e7		1.31e7	1.20e7	inactive
Polr3G (RNA polymerase III subunit G)	1	2.87e7	2.74e7		1.54e7	1.24e7	inactive
Tim13	1	2.27e7	3.44e7		1.14e7	1.60e7	inactive
GILT2 (Gamma-interferon-inducible lysosomal thiol reductase 2)	1	4.77e7	4.34e7		2.22e7	1.81e7	inactive
ODA-Dnal1 (Outer dynein arm dynein axonemal light chain 1)	1	3.76e7	4.53e7		1.83e7	1.89e7	inactive
CG4119	1	2.52e7	3.25e7		1.34e7	1.66e7	inactive
CG13631	1	4.81e7	4.22e7		2.28e7	1.88e7	inactive
CG13631	2	2.95e7	3.06e7		1.34e7	1.31e7	inactive
CG33695 + cana	1	2.56e7	2.45e7		1.45e7	1.23e7	inactive
CG33695 + cana	2	3.48e7	5.07e7		1.74e7	2.09e7	inactive
Ugt303B1 (UDP-glycosyltransferase family 303 member B1)	1	3.12e7	3.68e7		1.91e7	1.54e7	inactive
CG11349	1	2.10e7	3.60e7		1.14e7	1.69e7	inactive
CG6686	1	2.13e7			1.40e7		inactive
dup (double parked)	1	2.21e7	5.35e7		1.58e7	2.39e7	inactive
tant (tantalus)	1	1.85e7	3.23e7		9.80e6	1.30e7	inactive
HnRNP-K (Heterogeneous nuclear ribonucleoprotein K)	1	4.66e7	4.24e7		2.19e7	2.28e7	inactive
HnRNP-K (Heterogeneous nuclear ribonucleoprotein K)	2	3.45e7	3.47e7		1.92e7	1.58e7	inactive

Records above whose target name begins with M or m:
gene knocked down	reagent	calcium entry signal, replicate 1 (fluorescence units)	calcium entry signal, replicate 2 (fluorescence units)	entry to resting ratio	resting calcium signal, replicate 1 (fluorescence units)	resting calcium signal, replicate 2 (fluorescence units)	Call
mahe (maheshvara)	1	4.75e7	4.04e7		2.09e7	1.96e7	inactive
mRpS22 (mitochondrial ribosomal protein S22)	1	5.27e7	6.33e7		2.09e7	2.61e7	inactive
Mrp5 (Multidrug resistance protein 5)	1	3.83e7	4.22e7		4.57e7	1.98e7	inactive
Mrp5 (Multidrug resistance protein 5)	2	4.47e7	4.49e7		4.17e7	1.95e7	inactive
msd1 (mitotic spindle density 1)	1	3.07e7	3.63e7		1.64e7	1.62e7	inactive
